Assay results as given in patent US12606541B2, “PPARg modulators and methods of use” (Eisai R&D Management Co., Ltd., priority 2020, dated 2026).
The match of structure and compound is tentative.

By UniProt entry, the sequences of proteins in these tests, tags left out. Residues count along the entry.
UniProt P37231, 234-505 limits assumed: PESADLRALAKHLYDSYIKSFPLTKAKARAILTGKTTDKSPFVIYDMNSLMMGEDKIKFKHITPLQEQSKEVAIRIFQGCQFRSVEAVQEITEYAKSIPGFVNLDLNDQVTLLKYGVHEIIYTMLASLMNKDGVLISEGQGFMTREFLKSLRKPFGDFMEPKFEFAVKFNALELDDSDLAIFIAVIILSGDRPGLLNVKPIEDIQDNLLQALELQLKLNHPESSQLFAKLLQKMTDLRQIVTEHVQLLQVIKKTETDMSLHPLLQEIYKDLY

Columns and labels:
[1] = target: His6-TEV-PPARγ-(234-505) (Homo sapiens, UniProt P37231); assay: TR-FRET Assay to Measure Co-R Peptide Recruitment to PPARγ; conditions: read-out: TR-FRET i-Ag, Co-R peptide (SMRT-ID2) recruitment, top final concentration 20 μM
[2] = test system: UM-UC-9 engineered cells; assay: Cell proliferation / short-term viability assay, CellTiter-Glo 144 h; conditions: read-out: CTGlo 144 h UMUC9.5, G150
Experimental: Cell Seeding for Proliferation Assay
UM-UC-9 engineered cells were cultured in Dulbecco's Modified Eagle Medium (DMEM) supplemented with 10% FBS, 25 mM glucose (high glucose), 4.0 mM L-glutamine, 2.0 mM GlutaMAX™, 1.0 mM pyruvate, 1.0% non-essential amino acids (NEAA) in a 95% humidified incubator at 37° C. with 5% CO2. Cell banks of UM-UC-9 engineered assay-ready cells (ARCs) were prepared from a very active growth stage. Vials of ARCs containing approximately 5×10^6 cells per vial were stored in liquid nitrogen vapor phase cryostorage until use.
For making assay plates, ARCs were recovered from cryostorage, strained in a […] cell strainer, verified for cell viability >90% and counted using a cell counter (Cellometer Auto 1000, Nexelom). Each cell line was seeded into 384-well plates (50 μl/well) using DMEM medium at a density previously determined to be in log growth phase 7 days post-seeding (500 cells/well) using a bulk reagent dispenser (Multidrop™ Combi, Thermo Scientific) with a large-bore plastic-tip cassette pre-sanitized with 70% ethanol. One plate of cells was designated as the pretreatment time-zero (T0) control. Freshly seeded plates were allowed to sit lidded for 30 minutes within a biosafety cabinet for cells to settle distributed within the plate wells uniformly and then placed into an automated incubator (STX110, Liconic) at 37° C., 5% CO2, and 95% relative humidity.
Preparation of Test Compound in Assay-Ready Plate
Compounds were stored in a low-temperature sample archive as 10 mM dimethyl sulfoxide (DMSO) solutions at −20° C. under reduced humidity (−45° C. dew point) and protected from light. […] Samples retrieved from low-temperature archive storage were solubilized by heated sonication (Bransonic® Ultrasonic Bath, Branson), transferred (Microlab Starlet, Hamilton) and serially-diluted (Viaflo Assist, Integra) by low-volume liquid handlers, and tracked in LIMS by automation log files to create a ID barcoded master dose-response plate (MDR) to serve as a standard source for all assay-ready plates (ARP) used within an experiment. […]

Row | Compound | AC50 [1] [nM] | IC50 [2] [nM]
1 | COc1cc(-c2cc(C(=O)N3CCC(C(=O)NC4CCC(C(F)(F)F)N(C)C4)CC3)n[nH]2)c(Cl)cn1 (single isomer, unassigned) [Example 248] | 66.3 | 411
2 | COc1cc(-c2cc(C(=O)N3CCC(C(=O)NC4CCC(C(F)(F)F)OC4)CC3)n[nH]2)c(Cl)cn1 (single isomer, unassigned) [Example 249] | 26.4 | 244
3 | COc1cc(-c2cc(C(=O)N3CC[C@H](C(=O)NC4CCC(C)N(C)C4)CC34CC4)n[nH]2)c(F)cn1 (single isomer, unassigned) [Example 423] | 1890 | 2470
